PubChem BioAssay AID1159578, Peter MacCallum Cancer Centre | 2015
In all, the deposit lists about 18,000 reagents; below is an unselected part. Of all reagents, about 1,030 (5.7%) are marked active. 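Inactive calls also include pools with fewer than 3300 nuclei, whose migration was not assessed.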 Raw values vary from plate to plate and are shown uncorrected. Entries without a mark were called inactive.

- Aim: 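Knock-downs that alter how fast lymphatic endothelial cells migrate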 (primary screen)
- System: human lymphatic endothelial cells
- Reagents: siRNA pool against human genes, 40 nM
- Duration: 48 h after transfection
- Read-out: 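Cells stained with dye and imaged after a scratch; covered wound area and nuclei counted, duplicates averaged, migration set against mock wells and turned into a robust z-score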
- Direction: migration robust z-score: higher = faster migration into the scratch; migration relative to mock: higher = more scratch area covered than mock; nuclei per well: higher = more cells in the well
- Call rule: 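Migration changed when robust z exceeds 2 or falls below -2 and mean nuclei number is at least 3300; otherwise not called changed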
- Calls: active = migration changed; inactive = no migration change, or too few cells

| Target gene | migration robust z-score | migration class with cell-count check | migration relative to mock | nuclei per well, duplicate mean |
| --- | --- | --- | --- | --- |
| ZNF585A (zinc finger protein 585A) | -1.64 | migration z between -2 and 2; enough cells | 0.46 | 6183 |
| TMEM242 (transmembrane protein 242) | -1.94 | migration z between -2 and 2; enough cells | 0.39 | 3976 |
| HSPA1B (heat shock protein family A (Hsp70) member 1B) | 0.96 | migration z between -2 and 2; enough cells | 0.99 | 5964 |
| PPP3CB (protein phosphatase 3 catalytic subunit beta) | -1.19 | migration z between -2 and 2; enough cells | 0.57 | 4786 |
| PDK4 (pyruvate dehydrogenase kinase 4) | -0.39 | migration z between -2 and 2; enough cells | 0.73 | 6666 |
| SLC9A9 | 0.42 | migration z between -2 and 2; enough cells | 0.88 | 6622 |
| HPS3 (HPS3 biogenesis of lysosomal organelles complex 2 subunit 1) | 0.29 | migration z between -2 and 2; enough cells | 0.96 | 5254 |
| HNRNPU (heterogeneous nuclear ribonucleoprotein U) | 0.54 | migration z between -2 and 2; enough cells | 1.02 | 5800 |
| SACK1H (scaffolding CK1 anchoring protein H) | -0.95 | migration z between -2 and 2; enough cells | 0.64 | 5663 |
| OPA3 (outer mitochondrial membrane lipid metabolism regulator OPA3) | -0.8 | migration z between -2 and 2; enough cells | 0.65 | 4512 |
| WASHC3 (WASH complex subunit 3) | 1.48 | migration z between -2 and 2; enough cells | 1.27 | 5529 |
| FAM131B (family with sequence similarity 131 member B) | -0.16 | migration z between -2 and 2; enough cells | 0.84 | 4985 |
| SIMC1 (SUMO interacting motifs containing 1) | -1.94 | migration z between -2 and 2; enough cells | 0.38 | 6126 |
| PEX2 (peroxisomal biogenesis factor 2) | 0.05 | migration z between -2 and 2; enough cells | 0.82 | 5603 |
| GUCA1C (guanylate cyclase activator 1C) | 1.12 | migration z between -2 and 2; enough cells | 1.02 | 5912 |
| ARMC9 (armadillo repeat containing 9) | -0.31 | migration z between -2 and 2; enough cells | 0.8 | 5805 |
| GLI1 (GLI family zinc finger 1) | -2.1 (active) | migration z below -2; enough cells | 0.4 | 5903 |
| DEFB128 (defensin beta 128) | 0.22 | migration z between -2 and 2; enough cells | 0.94 | 5762 |
| OSR2 (odd-skipped related transciption factor 2) | -1.17 | migration z between -2 and 2; enough cells | 0.58 | 5593 |
| CD96 (CD96 molecule) | 0.94 | migration z between -2 and 2; enough cells | 0.98 | 6192 |
| ATP6V1G2 (ATPase H+ transporting V1 subunit G2) | -0.78 | migration z between -2 and 2; enough cells | 0.66 | 6522 |
| NCAPG (non-SMC condensin I complex subunit G) | 0.26 | migration z between -2 and 2; enough cells | 0.95 | 5806 |
| LPL (lipoprotein lipase) | -2.23 (active) | migration z below -2; enough cells | 0.38 | 5530 |
| ZNF10 (zinc finger protein 10) | 0.18 | migration z between -2 and 2; enough cells | 0.93 | 6549 |
| MFAP3 (microfibril associated protein 3) | -0.23 | migration z between -2 and 2; enough cells | 0.82 | 5664 |
| FGF2 (fibroblast growth factor 2) | -0.7 | migration z between -2 and 2; enough cells | 0.67 | 7039 |
| GZMK (granzyme K) | 0.76 | migration z between -2 and 2; enough cells | 0.95 | 5400 |
| GPRC5B (G protein-coupled receptor class C group 5 member B) | 0 | migration z between -2 and 2; enough cells | 0.8 | 6310 |
| TECR (trans-2,3-enoyl-CoA reductase) | 1.14 | migration z between -2 and 2; enough cells | 1.02 | 5734 |
| ZC3H13 (zinc finger CCCH-type containing 13) | -1.43 | migration z between -2 and 2; enough cells | 0.52 | 4277 |
| CD244 (CD244 molecule) | -0.45 | migration z between -2 and 2; enough cells | 0.76 | 6283 |
| LSS (lanosterol synthase) | -0.32 | migration z between -2 and 2; enough cells | 0.74 | 5764 |
| ZNF558 (zinc finger protein 558) | 0.66 | migration z between -2 and 2; enough cells | 1.06 | 6246 |
| TCF15 (transcription factor 15) | -0.44 | migration z between -2 and 2; enough cells | 0.72 | 7090 |
| HLA-G (major histocompatibility complex, class I, G) | -0.1 | migration z between -2 and 2; enough cells | 0.78 | 4153 |
| OXA1L (OXA1L mitochondrial inner membrane insertase) | 0.5 | migration z between -2 and 2; enough cells | 1.02 | 5563 |
| FNBP4 (formin binding protein 4) | 0.19 | migration z between -2 and 2; enough cells | 0.94 | 5336 |
| ARG1 (arginase 1) | -0.05 | migration z between -2 and 2; enough cells | 0.8 | 5714 |
| ARF4 (ARF GTPase 4) | 0.11 | migration z between -2 and 2; enough cells | 0.82 | 5518 |

Targets above whose gene name begins with P or p:
| Target gene | migration robust z-score | migration class with cell-count check | migration relative to mock | nuclei per well, duplicate mean |
| --- | --- | --- | --- | --- |
| PPP3CB (protein phosphatase 3 catalytic subunit beta) | -1.19 | migration z between -2 and 2; enough cells | 0.57 | 4786 |
| PDK4 (pyruvate dehydrogenase kinase 4) | -0.39 | migration z between -2 and 2; enough cells | 0.73 | 6666 |
| PEX2 (peroxisomal biogenesis factor 2) | 0.05 | migration z between -2 and 2; enough cells | 0.82 | 5603 |
